# Measurements from publication PMC7814060.
# The chains behind the UniProt entries cited, without tags or fusion partners.
# UniProt O94953: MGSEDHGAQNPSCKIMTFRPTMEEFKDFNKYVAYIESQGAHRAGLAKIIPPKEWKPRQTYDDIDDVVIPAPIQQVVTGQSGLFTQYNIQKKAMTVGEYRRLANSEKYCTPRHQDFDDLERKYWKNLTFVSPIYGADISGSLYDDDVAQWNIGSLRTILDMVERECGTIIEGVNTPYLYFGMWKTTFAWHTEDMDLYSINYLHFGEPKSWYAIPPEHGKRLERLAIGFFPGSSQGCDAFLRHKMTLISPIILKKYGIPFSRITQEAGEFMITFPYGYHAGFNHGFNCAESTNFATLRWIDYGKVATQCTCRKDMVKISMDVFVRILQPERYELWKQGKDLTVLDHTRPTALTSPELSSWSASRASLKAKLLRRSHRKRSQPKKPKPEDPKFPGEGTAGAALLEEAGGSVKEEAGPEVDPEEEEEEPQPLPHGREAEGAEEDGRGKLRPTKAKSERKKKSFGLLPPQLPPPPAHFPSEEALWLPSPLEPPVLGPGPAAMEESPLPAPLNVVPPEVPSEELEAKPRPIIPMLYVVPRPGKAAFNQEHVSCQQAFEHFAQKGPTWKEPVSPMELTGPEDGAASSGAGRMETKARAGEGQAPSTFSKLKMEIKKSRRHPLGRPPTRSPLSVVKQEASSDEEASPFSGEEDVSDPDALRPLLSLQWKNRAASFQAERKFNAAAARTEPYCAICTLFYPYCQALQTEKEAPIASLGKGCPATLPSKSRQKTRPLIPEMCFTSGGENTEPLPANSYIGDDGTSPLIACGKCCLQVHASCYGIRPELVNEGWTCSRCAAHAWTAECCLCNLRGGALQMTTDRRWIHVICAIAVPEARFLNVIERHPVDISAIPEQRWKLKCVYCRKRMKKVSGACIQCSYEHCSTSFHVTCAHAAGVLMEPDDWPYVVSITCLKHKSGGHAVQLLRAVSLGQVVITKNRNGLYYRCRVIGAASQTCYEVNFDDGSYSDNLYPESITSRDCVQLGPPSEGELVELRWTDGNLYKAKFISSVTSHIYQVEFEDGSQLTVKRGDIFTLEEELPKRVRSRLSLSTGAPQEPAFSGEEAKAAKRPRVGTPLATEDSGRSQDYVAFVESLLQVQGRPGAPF
# These are yes or no findings as the source states them, for the method shown. In cells and extracts the contact can be indirect.
# Molecular target: p53 (wild-type, endogenous in U87 glioblastoma cells) (human (endogenous in U87)) (UniProt P04637)
# Test: co-IP; endogenous proteins; lysates of U87, LN215 and SNB19 cells incubated with anti-p53 monoclonal antibody (sc-126) at 4 °C overnight, protein A/G agarose 3 h, immunoblot
substance,measurement,value
KDM4B (endogenous in glioblastoma cells) (from UniProt O94953 1-1096),binding,no binding
